Test results from patent publication US20200009248A1, “TARGETING TGR5 TO TREAT DISEASE” (Mayo Foundation for Medical Education and Research, priority 2014, published 2020).
Results are given in words; binding and its absence hold for the method and conditions named. Some binding calls cover weakened binding; strength is not graded here.

By UniProt entry, the sequences of proteins in these tests, tags left out. Residues count along the entry.
UniProt P63095, residues 2-394: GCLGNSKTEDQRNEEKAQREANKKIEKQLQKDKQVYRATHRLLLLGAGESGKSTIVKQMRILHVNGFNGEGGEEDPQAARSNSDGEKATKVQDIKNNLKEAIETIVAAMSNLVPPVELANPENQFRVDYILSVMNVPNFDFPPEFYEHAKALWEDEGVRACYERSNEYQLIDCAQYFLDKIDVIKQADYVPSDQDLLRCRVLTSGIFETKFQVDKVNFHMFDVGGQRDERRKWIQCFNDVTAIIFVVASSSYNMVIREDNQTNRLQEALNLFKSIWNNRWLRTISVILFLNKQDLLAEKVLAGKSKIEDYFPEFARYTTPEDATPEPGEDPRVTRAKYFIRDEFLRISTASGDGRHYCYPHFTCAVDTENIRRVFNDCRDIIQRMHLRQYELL

Target: Gαs proteins (rat) (UniProt P63095)
Test: immunofluorescence confocal co-staining of liver sections of PCK rats, with or without oleanolic acid

binding: binds
B1: TGR5 (receptor, rat, UniProt Q80T02 1-329, looked up)
chain: MMSHNTTELSAIPRGVQELSLVLASLIVIANLLLALGIVLDRHLRSPPAGCFFLSLLLAGLLTGLALPTLPGLWNRSHQGYWSCLLLHLAPNFCFLSLLANLLLVHGERYMAVLQPLRPHGSVRLALFLTWISSLLFASLPALGWNHWSPGANCSSQAIFPAPYLYLEVYGLLLPAVGATALLSVRVLATAHHQLREIRRLERAVCRDAPSTLARALTWRQARAQAGATLLFLLCWGPYVATLLLSVLAYERRPPLGPVTLLSLISLGSASAAVVPVAMGLGDQRYTAPWRTAAQRWLQVLRGRPKRANPGPSTAYHSSSQCSTDLDLN
